Source: article PMC5503561
Results are given in words; binding and its absence hold for the method and conditions named. Binding seen in cells or lysates may run through a third protein. Binding can be weak; no strength is given.

Amino acid sequences for entries named in this document (tags omitted). A change or cut given only in a name is not applied to a line headed by its entry.
UniProt P55085: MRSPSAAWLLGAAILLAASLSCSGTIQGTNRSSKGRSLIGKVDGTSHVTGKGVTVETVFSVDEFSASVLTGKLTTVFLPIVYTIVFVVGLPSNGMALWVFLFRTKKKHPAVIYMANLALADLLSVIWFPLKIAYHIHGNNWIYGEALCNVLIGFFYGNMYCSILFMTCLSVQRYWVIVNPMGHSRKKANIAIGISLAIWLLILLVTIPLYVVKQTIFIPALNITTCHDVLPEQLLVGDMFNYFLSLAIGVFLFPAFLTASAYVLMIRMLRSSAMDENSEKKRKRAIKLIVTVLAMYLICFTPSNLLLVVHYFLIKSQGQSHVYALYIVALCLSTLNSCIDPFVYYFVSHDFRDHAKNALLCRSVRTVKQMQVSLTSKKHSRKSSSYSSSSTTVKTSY
UniProt O15169: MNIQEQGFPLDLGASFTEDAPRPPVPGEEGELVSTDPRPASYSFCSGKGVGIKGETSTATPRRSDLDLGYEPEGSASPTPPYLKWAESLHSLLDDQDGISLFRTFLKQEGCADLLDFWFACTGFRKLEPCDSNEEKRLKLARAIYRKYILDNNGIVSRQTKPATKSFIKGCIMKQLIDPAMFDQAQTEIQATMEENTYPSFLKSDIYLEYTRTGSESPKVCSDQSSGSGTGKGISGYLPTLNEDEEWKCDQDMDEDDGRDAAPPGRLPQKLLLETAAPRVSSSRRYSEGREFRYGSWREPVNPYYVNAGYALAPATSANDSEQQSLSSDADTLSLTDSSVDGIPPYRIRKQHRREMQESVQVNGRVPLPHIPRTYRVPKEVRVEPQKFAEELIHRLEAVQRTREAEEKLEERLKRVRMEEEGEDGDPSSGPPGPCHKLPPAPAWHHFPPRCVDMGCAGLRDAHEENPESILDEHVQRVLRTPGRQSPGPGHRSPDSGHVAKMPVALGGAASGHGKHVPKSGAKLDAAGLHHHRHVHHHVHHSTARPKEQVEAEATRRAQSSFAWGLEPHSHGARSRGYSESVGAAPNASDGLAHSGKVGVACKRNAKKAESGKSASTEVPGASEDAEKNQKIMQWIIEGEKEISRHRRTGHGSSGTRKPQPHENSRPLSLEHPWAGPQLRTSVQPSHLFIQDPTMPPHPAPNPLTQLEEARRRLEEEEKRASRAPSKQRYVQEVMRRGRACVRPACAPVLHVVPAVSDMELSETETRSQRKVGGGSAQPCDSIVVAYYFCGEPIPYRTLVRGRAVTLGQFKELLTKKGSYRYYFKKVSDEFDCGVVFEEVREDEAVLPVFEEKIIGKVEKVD

Biological target: Protease-activated receptor-2 (PAR2), wt hPar2 (human) (UniProt P55085)
Assay: co-IP; HEK293T cells transiently transfected, activated with SLIGKV (5 to 30 min); 400 ug cell lysate, antibody to the bait (anti-PAR2, anti-GFP or anti-flg) overnight, protein A-Sepharose 1 h at 4°C, Western blot

binding: binds
Substance: flg-Axin (from UniProt O15169 1-862)
